# Measurements published in article PMC7819943, “Rice protein-binding microarrays: a tool to detect cis-acting elements near promoter regions in rice”.
# Some of the results follow.
# Biological target: T1, OsSMF1 (Oryza sativa, UniProt Q6ZLB0 1-436)
# T1 sequence: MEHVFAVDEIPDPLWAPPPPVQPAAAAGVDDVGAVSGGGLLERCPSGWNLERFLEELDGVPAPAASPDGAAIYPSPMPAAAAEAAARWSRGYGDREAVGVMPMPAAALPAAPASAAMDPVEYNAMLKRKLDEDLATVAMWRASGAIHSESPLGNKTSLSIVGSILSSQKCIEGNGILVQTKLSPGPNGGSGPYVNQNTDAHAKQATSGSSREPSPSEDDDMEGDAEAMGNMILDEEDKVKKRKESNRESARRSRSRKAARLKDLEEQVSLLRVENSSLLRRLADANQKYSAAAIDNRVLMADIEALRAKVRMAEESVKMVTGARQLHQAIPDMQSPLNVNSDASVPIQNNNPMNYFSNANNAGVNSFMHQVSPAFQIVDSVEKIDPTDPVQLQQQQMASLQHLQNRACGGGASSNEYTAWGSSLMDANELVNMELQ
# Experiment: protein-binding microarray (RPBM); PBS, 2% BSA, 51.3 ng/ul salmon testes DNA, 50 uM zinc acetate, 200 nM TF, 25 C, 1 h; high values mean tight binding
# Conditions: protein: recombinant; tags: N-terminal polyhistidine and DsRed monomer fusion (pET32a); chain copies: 2; label: CyDye5-dUTP incorporated in the synthesized complementary strand; 3' TTTTT single-stranded linker to array surface; dsDNA, one strand shown
# In short: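 A custom Agilent array was converted to double-stranded form by primer extension with Cy5-dUTP and blocked with 2% BSA. Protein at 200 nM in PBS with 2% BSA, salmon testes DNA and 50 µM zinc acetate was applied for 1 h at 25 °C, followed by washing. The proteins were polyhistidine–DsRed N-terminal fusions of transcription factors, expressed in E. coli BL21-CodonPlus and Ni–NTA-purified. The binding signal is per-feature fluorescence intensity (arbitrary units) from an Axon 4000B scanner.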
row,Sequence,binding signal
1,AATGTGCGCCTGTGCGAGTGCGACGAATGTACCTAACAGTCGGAGTCACCTAGTGCAG,3180 fluorescence intensity (a.u.)
2,CACCGAGGAAATGCTGACCTCGACGTTTGGCCTGTGAATACGGAGTCACCTAGTGCAG,3240 fluorescence intensity (a.u.)
3,ACCAAAATTTAAAATTTCAACCTTAAATTCAGAGTTGATTCGGAGTCACCTAGTGCAG,20900 fluorescence intensity (a.u.)
4,GCGCTGTCCCCGTCATGCGTGTTGGTGGTATAGTACTAGTCGGAGTCACCTAGTGCAG,5560 fluorescence intensity (a.u.)
5,TACATTATTAAATAACTAATCTACTCATCTCTTTCACATGCGGAGTCACCTAGTGCAG,4340 fluorescence intensity (a.u.)
6,CCAGCCTCGCCACCTCGCCCATGCTTATCGCTCTCTTCCCCGGAGTCACCTAGTGCAG,3410 fluorescence intensity (a.u.)
7,TGGTCTAAACGACACGAAACTCTGTCATTATTCTCTGGAACGGAGTCACCTAGTGCAG,3600 fluorescence intensity (a.u.)
8,GAACCTGTCTCCCGAACTCGGGAAATTTAACTATTTGCCACGGAGTCACCTAGTGCAG,3930 fluorescence intensity (a.u.)
9,TAGTCCTTCAGTTTCAGTCCCCTCGCATCGCCATAACCACCGGAGTCACCTAGTGCAG,5620 fluorescence intensity (a.u.)
10,GGCCGCGTGTGGCCGCCGGACCAGTTCGCGTCCTGTGCCTCGGAGTCACCTAGTGCAG,11700 fluorescence intensity (a.u.)
11,ATGGGCCTAAATAGTAGCTGCCATGTGGACTTTTATGATGCGGAGTCACCTAGTGCAG,4890 fluorescence intensity (a.u.)
12,AAAGAAGGAGATGATATAAGGGGTAGCAACTGGTGTGACTCGGAGTCACCTAGTGCAG,3140 fluorescence intensity (a.u.)
13,AACCCGCGATCTGACCGGTCTGTGACCGGTCACACACTGCCGGAGTCACCTAGTGCAG,3800 fluorescence intensity (a.u.)
14,CATAGTTGACTTCCAAGGCAAGACAGATGAGATATGCATTCGGAGTCACCTAGTGCAG,45500 fluorescence intensity (a.u.)
15,AACGGTTAAATGTTGGACATTAATGGTGTAAAATAATACTCGGAGTCACCTAGTGCAG,4300 fluorescence intensity (a.u.)
16,ACAATTTCATTTGTTGCCACGTTGCGTACTGAACAGTGCACGGAGTCACCTAGTGCAG,7790 fluorescence intensity (a.u.)
17,TATTTTGGAAAATGAGTCACAGGGTTATTGTAGCTTTGAACGGAGTCACCTAGTGCAG,9390 fluorescence intensity (a.u.)
18,AAGCATTGTGACAGTGTGAGTGGTACCCGTCAAATGTCATCGGAGTCACCTAGTGCAG,3630 fluorescence intensity (a.u.)
19,CGCGACGGTGGACGCGGCCATCGCCGTCGACCAGTGCAGGCGGAGTCACCTAGTGCAG,3380 fluorescence intensity (a.u.)
20,AAACCGGACCAATCTACGTCACTCACCTACTACCACAAGACGGAGTCACCTAGTGCAG,4260 fluorescence intensity (a.u.)
21,TCTGAAAAGGAAAGGGAGGAGAGAGAAAGGCAAAGAGGAGCGGAGTCACCTAGTGCAG,26000 fluorescence intensity (a.u.)
22,TGGTGCGGAGATCGGATGCGTCACCTTGCTTCGGTTGCGCCGGAGTCACCTAGTGCAG,5080 fluorescence intensity (a.u.)
23,AAAATATTATTTTCCCTGAGTCATCTTATACTTGAATTTGCGGAGTCACCTAGTGCAG,4530 fluorescence intensity (a.u.)
24,GTTGCGCCGCTGTGCTGGTCAAAGCTGGCGGTGTACGATGCGGAGTCACCTAGTGCAG,3640 fluorescence intensity (a.u.)
25,CGTCGCCTCCACGGAGGAGAGCCCCGTCACGCCGCTCCGCCGGAGTCACCTAGTGCAG,5910 fluorescence intensity (a.u.)
26,GGATGTGATGACTGTTTGTCTGTTTGGCTGATATCTCCACCGGAGTCACCTAGTGCAG,7420 fluorescence intensity (a.u.)
27,CCTCTCTCATCAGCACACACTGTCACCACAACAGCCACCACGGAGTCACCTAGTGCAG,3830 fluorescence intensity (a.u.)

row,Sequence,binding signal
1,AAGCAAATCTCTAGATAGATAGATAGATGGATGGATGGATCGGAGTCACCTAGTGCAG,33800 fluorescence intensity (a.u.)
2,GTCGGATTAGTGATTATGCTAATCAATGCCACGTAGGATCCGGAGTCACCTAGTGCAG,27000 fluorescence intensity (a.u.)
3,ACTGCGACGTACACACGTGGCAAGTGCATTTCCTCCCGATCGGAGTCACCTAGTGCAG,10800 fluorescence intensity (a.u.)
4,GGCAAAATGAGGACGCAGTCTATCGAGACGGTGACACTGCCGGAGTCACCTAGTGCAG,3490 fluorescence intensity (a.u.)
5,AACCTCATCCCAGCTGACGTTCACCCGACGCCGCCCGTCGCGGAGTCACCTAGTGCAG,5120 fluorescence intensity (a.u.)
6,CCTCTGCCATCATCGTCGTCATCCCATCCGGATTGCCACCCGGAGTCACCTAGTGCAG,5630 fluorescence intensity (a.u.)
7,CAAAATCTTCTGTGACTCATTGCATGATGCATTTAACTAGCGGAGTCACCTAGTGCAG,5780 fluorescence intensity (a.u.)
8,GTCCGATCTGTCGCAAGGCTTACTCATCGGACGGCCGAGACGGAGTCACCTAGTGCAG,3190 fluorescence intensity (a.u.)
9,CGAAGAAACAATAGCTCATCGGATCTAATTCTGATCATATCGGAGTCACCTAGTGCAG,24400 fluorescence intensity (a.u.)
10,TGTATCTGTACTATACCTCTGTACGCTGCCATGTGAACTACGGAGTCACCTAGTGCAG,3470 fluorescence intensity (a.u.)
11,ACTCGTGACAAAGCAGACACGTGCTCAATGCGTAACAAGACGGAGTCACCTAGTGCAG,5160 fluorescence intensity (a.u.)
12,CCTTTGCCACCTTCTCTAATAAAGTAATATGTGTGTCATACGGAGTCACCTAGTGCAG,3920 fluorescence intensity (a.u.)
13,CACGCGTCGTGCAGCCATTGGTGGCACGTCAGCATCATCGCGGAGTCACCTAGTGCAG,22400 fluorescence intensity (a.u.)
14,AGACTAATGACAACATGCACTTTTAGGCGACGTGTATATACGGAGTCACCTAGTGCAG,3260 fluorescence intensity (a.u.)
15,CCTAAGCTAAAGTTTGATGCCAAAATCGCATCGAGCTCACCGGAGTCACCTAGTGCAG,21400 fluorescence intensity (a.u.)
16,ACATGCCATGTACACGTACAGTACACGAAAGCACAGACAACGGAGTCACCTAGTGCAG,4370 fluorescence intensity (a.u.)
17,ATAGGTTTCAAATATTGACAATGTTACTAGCTTGTGGTCCCGGAGTCACCTAGTGCAG,4540 fluorescence intensity (a.u.)
18,GACCTTGCCAGGCACCACTGCCTAAGGATCCCGGTAACATCGGAGTCACCTAGTGCAG,25000 fluorescence intensity (a.u.)
19,TCTCGCTCAACGTGTTACGTGTGGTTTGTATAAACGCAGGCGGAGTCACCTAGTGCAG,4850 fluorescence intensity (a.u.)
20,CTGCGTTAGTTGTTGCGTCCCGCCTTGTCCGTCCTTGTCACGGAGTCACCTAGTGCAG,4160 fluorescence intensity (a.u.)
21,GATCAGAGATGAGGGCGGGCGGGTTGACTGGGAGAGTAGACGGAGTCACCTAGTGCAG,4160 fluorescence intensity (a.u.)
22,CAGAGGTTCCTTTGCCTAGAAAGCCAAGTCATTCACTACTCGGAGTCACCTAGTGCAG,3390 fluorescence intensity (a.u.)
23,TCTGATCGATGAGTATAAATTTATATACCTTGTTCGTTCGCGGAGTCACCTAGTGCAG,20500 fluorescence intensity (a.u.)
24,ACACCTCTCCCGTCGCAAGCCACCTCACCCTCACCTCGCCCGGAGTCACCTAGTGCAG,5030 fluorescence intensity (a.u.)
25,CGGGAGAAATGTGGATAAGAATAATAAGGTTGACAAATGCCGGAGTCACCTAGTGCAG,4080 fluorescence intensity (a.u.)
26,CTAATCGGCCTGTAATCCTTGAGCAGGATAGGCGATTCTGCGGAGTCACCTAGTGCAG,15100 fluorescence intensity (a.u.)
27,CCTTGAATCCCTTAGGTTTCGTCTACTTCGCCAGCATGGTCGGAGTCACCTAGTGCAG,4030 fluorescence intensity (a.u.)

# Quoted at random: five records from the list
row,Sequence,binding signal
22,CAGAGGTTCCTTTGCCTAGAAAGCCAAGTCATTCACTACTCGGAGTCACCTAGTGCAG,3390 fluorescence intensity (a.u.)
10,TGTATCTGTACTATACCTCTGTACGCTGCCATGTGAACTACGGAGTCACCTAGTGCAG,3470 fluorescence intensity (a.u.)
12,CCTTTGCCACCTTCTCTAATAAAGTAATATGTGTGTCATACGGAGTCACCTAGTGCAG,3920 fluorescence intensity (a.u.)
15,CCTAAGCTAAAGTTTGATGCCAAAATCGCATCGAGCTCACCGGAGTCACCTAGTGCAG,21400 fluorescence intensity (a.u.)
14,AGACTAATGACAACATGCACTTTTAGGCGACGTGTATATACGGAGTCACCTAGTGCAG,3260 fluorescence intensity (a.u.)
